From US6284799A, “Cancer treatment” (priority 1996, dated 2001)
pIC50, pKi: −log10 of the molar value.

Columns and labels:
[1] = molecular target: ^3 H-DPPE binding (HIC) in rat liver microsomes; assay: competition for 3H-DPPE binding in liver microsomes; conditions: FIG. 2, read-out: K1 to compete for ^3 H-DPPE binding
[2] = system: concanavalin A-stimulated normal lymphocytes; assay: proliferation of concanavalin A-stimulated normal lymphocytes; format: cell-based; conditions: Lymphocyte; in the absence of cytotoxicity; FIG. 5; read-out: IC50, inhibition of proliferation

SMILES: CN(C)CCC=C1c2ccccc2COc2ccccc21 [doxepin, reference compound]
- pKi [1]: 5.30

SMILES: CNCCC(Oc1ccc(C(F)(F)F)cc1)c1ccccc1 (centres unmarked) [fluoxetine]
- pIC50 [2]: 4.70 to 5.00
